Data published in paper PMC12717121, “ABA-independent PP2C-binding in PYLs traces to bacterial origins and persists in land plants” (Nature Communications, 2025).
No constants are given. Whether binding was seen depends on the method and setting. For some assays here: Binding seen in cells or lysates may run through a third protein. For some assays here: A result given as binding can be weak or reduced; the word gives no strength. For some assays here: Tags and fused reporters may be left off the sequences shown.

By UniProt entry, the sequences of proteins in these tests, tags left out. Where a name states a change or a piece, a line headed by the entry shows the natural chain unless it says otherwise.
UniProt P49597: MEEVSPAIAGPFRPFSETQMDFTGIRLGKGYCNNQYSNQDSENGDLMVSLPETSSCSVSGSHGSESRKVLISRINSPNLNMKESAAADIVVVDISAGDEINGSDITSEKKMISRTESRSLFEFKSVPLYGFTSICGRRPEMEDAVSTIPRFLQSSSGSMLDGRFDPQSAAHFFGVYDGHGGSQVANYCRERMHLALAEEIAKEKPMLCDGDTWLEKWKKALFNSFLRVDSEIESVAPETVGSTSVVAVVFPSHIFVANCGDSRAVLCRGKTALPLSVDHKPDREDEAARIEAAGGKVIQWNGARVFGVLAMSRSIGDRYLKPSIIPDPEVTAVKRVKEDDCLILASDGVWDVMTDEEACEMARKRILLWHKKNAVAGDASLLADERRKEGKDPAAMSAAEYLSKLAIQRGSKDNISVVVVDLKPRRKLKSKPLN
UniProt A0A2N7VMU2: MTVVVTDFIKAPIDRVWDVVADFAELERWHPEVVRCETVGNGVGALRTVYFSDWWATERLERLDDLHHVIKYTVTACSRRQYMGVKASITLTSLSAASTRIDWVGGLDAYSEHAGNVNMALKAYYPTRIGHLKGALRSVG

Tests used:
[1] = molecular target: T1, HAB2 (Arabidopsis clade A PP2C), two-hybrid fusion (Arabidopsis) (UniProt Q9LNP9); experiment: two-hybrid; Matchmaker GAL4 Two-Hybrid System, yeast strain Y2HGold co-transformed with paired constructs; growth on selective SD/-Leu-Trp-His (or -LWHA) media without or with 10 µM ABA
T1 sequence: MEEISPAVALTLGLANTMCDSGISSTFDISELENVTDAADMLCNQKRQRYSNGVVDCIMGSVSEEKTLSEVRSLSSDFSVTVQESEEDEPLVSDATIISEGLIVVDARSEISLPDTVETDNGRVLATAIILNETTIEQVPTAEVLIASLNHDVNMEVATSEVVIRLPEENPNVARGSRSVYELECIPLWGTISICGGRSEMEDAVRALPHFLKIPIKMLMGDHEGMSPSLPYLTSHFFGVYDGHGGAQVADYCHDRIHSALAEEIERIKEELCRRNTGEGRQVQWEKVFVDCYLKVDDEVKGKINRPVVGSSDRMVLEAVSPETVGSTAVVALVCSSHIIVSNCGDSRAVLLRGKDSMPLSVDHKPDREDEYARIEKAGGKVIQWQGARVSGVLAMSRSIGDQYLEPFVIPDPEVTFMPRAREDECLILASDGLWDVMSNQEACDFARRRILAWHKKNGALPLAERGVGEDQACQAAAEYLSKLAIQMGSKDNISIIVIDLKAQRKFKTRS

[2] = molecular target: T2, PP2CA (Arabidopsis clade A PP2C), two-hybrid fusion (Arabidopsis) (UniProt P49598); experiment: as above
T2 sequence: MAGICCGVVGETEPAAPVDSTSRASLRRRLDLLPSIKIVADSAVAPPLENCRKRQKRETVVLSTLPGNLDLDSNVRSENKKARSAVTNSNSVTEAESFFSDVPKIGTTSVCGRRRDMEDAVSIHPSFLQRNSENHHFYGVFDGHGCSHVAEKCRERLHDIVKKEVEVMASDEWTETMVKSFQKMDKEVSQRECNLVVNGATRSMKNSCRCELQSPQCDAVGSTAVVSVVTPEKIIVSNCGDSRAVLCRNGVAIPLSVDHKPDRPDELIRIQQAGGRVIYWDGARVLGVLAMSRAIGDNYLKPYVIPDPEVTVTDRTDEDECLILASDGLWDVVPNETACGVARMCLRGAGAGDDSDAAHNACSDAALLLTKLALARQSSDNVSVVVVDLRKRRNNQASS

cLUC-HAI1 (Arabidopsis) = molecular target: T3, cLUC-HAI1 (Arabidopsis) (UniProt Q9FIF5); experiment: split reporter; firefly luciferase complementation imaging (LCI); PYL-nLUC and cLUC-PP2C transiently co-expressed in Nicotiana benthamiana leaves by Agrobacterium infiltration; D-luciferin, CCD imaging
T3 sequence: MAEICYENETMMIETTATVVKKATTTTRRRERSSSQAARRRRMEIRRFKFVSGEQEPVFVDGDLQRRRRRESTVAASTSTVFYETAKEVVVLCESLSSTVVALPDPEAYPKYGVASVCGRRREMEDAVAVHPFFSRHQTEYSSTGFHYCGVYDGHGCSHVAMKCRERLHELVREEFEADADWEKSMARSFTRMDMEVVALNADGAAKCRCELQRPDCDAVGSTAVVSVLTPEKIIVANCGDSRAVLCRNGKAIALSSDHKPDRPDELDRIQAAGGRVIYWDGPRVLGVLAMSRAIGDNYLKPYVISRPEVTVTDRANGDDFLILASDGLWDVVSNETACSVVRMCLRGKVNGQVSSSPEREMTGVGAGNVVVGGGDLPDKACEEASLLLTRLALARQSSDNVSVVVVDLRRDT

cLUC-PP2CA (Arabidopsis) = molecular target: T4, cLUC-PP2CA (Arabidopsis) (UniProt P49598); experiment: as above
T4 sequence: T2 sequence

[3] = molecular target: cLUC-AtABI1 (Arabidopsis) (UniProt P49597); experiment: as above
[4] = molecular target: T5, cLUC-AtHAB2 (Arabidopsis) (UniProt Q9LNP9); experiment: as above
T5 sequence: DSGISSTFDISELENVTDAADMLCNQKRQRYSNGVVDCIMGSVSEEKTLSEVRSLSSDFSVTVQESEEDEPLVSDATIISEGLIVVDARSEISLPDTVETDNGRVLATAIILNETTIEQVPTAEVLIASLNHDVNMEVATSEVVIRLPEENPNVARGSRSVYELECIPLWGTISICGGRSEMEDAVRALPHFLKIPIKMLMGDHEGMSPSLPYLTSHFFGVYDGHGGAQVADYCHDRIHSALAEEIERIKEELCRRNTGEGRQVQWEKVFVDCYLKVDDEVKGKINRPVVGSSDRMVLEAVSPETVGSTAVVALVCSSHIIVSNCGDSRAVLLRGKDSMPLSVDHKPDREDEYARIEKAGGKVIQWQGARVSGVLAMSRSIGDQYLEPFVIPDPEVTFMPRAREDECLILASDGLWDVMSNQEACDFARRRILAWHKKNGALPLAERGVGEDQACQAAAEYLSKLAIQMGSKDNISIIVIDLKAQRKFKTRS

Row | Substance | binding [1] | binding [2] | further results
1 | Frankia PYL | no binding | no binding | 
2 | MeenPYL3-nLUC (Mesotaenium endlicherianum) |  |  | binding (cLUC-HAI1 (Arabidopsis)): binds; binding (cLUC-PP2CA (Arabidopsis)): binds
3 | PrPYL-nLUC (from UniProt A0A2N7VMU2) |  |  | binding [3]: binds weakly; binding [4]: binds weakly
4 | Sphingomonas PYL | no binding | no binding | 
